This note sets out measurements from PMC6868227.

Chains of the proteins cited; added tags and fusions are not shown.
UniProt P40763: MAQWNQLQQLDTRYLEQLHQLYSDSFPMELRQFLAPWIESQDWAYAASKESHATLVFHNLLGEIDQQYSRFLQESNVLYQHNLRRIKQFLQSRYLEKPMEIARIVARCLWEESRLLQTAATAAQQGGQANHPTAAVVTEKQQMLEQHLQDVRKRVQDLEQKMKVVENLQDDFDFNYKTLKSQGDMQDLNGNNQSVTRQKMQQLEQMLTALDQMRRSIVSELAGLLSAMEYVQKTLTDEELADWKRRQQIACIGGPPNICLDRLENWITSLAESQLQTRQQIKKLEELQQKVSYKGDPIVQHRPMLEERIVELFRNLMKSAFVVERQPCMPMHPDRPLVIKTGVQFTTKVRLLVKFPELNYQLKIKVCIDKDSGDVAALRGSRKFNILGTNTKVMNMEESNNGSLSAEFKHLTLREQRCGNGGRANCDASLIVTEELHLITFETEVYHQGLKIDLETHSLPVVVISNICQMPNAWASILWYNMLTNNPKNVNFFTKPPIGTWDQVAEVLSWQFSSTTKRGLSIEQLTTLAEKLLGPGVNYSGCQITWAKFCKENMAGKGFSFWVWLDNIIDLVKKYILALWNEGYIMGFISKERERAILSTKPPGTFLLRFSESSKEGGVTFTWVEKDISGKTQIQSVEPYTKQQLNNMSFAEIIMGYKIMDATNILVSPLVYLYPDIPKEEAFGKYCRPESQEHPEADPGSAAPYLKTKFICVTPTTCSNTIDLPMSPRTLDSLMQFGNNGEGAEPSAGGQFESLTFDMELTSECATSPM

In assay [1] the target is T1, VGLL4-BirA*-HA (full-length VGLL4 amino acid sequence fused with BirA*) (UniProt Q14135).
T1 sequence: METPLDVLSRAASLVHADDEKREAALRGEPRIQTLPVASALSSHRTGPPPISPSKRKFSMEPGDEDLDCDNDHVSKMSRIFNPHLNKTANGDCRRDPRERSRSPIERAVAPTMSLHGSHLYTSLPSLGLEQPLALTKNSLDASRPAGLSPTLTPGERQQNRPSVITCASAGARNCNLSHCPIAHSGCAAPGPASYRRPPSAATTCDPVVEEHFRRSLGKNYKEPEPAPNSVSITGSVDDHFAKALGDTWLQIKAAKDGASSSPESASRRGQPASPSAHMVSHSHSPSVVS
The experiment in a line: co-IP; IP with an HA-tag antibody from RIPA lysates of MCF-10A cells stably expressing the BirA*-HA constructs, protein A/G plus-agarose, 4 °C overnight; blot for STAT3.

The target of assay [2] is T2, VGLL4-Flag (UniProt Q14135).
T2 sequence: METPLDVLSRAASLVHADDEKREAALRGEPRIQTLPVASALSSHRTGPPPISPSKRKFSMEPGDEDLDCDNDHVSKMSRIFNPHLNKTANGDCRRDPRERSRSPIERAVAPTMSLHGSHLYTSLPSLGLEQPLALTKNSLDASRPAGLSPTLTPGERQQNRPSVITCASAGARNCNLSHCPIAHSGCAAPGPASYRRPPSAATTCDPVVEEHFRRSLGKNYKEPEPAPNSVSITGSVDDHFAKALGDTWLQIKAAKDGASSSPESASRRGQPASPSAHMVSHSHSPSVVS
The experiment in a line: co-IP; IP with a Flag-tag antibody from RIPA lysates of VGLL4-Flag-overexpressing MDA-MB-231 cells transfected with VGLL4 siRNA or NC; blot for STAT3.

The target in assay [3] is STAT3 (endogenous, MCF-10A cells) (human (endogenous in MCF-10A)) (UniProt P40763). The assay is described as follows: co-IP; IP with a STAT3 antibody from RIPA lysate of MCF-10A cells overexpressing VGLL4-BirA*-HA, protein A/G plus-agarose, 4 °C overnight; blot for VGLL4.
Assay [4] concerns the target STAT3 (endogenous, MDA-MB-231 cells) (human (endogenous in MDA-MB-231)) (UniProt P40763). The experiment in a line: co-IP; IP with a STAT3 antibody from RIPA lysate of normal MDA-MB-231 cells (both proteins endogenous), protein A/G plus-agarose, 4 °C overnight; blot for VGLL4.
Assay [5] has the same target. The experiment in a line: co-IP; IP with a STAT3 antibody from RIPA lysates of VGLL4-Flag-overexpressing MDA-MB-231 cells transfected with VGLL4 siRNA or NC; blot for exogenous VGLL4.

Results are given in words; binding and its absence hold for the method and conditions named. Binding seen in cells or lysates may run through a third protein. Some entries that bind do so weakly or less than the wild type. For some assays here: Tags and fused reporters may be left off the sequences shown.

As to “STAT3 (endogenous, MCF-10A cells) (from UniProt P40763 1-770)”, the binding result in assay [1] is given as “binds”.

In the case of “STAT3 (endogenous, MDA-MB-231 cells) (from UniProt P40763 1-770)”, the binding result in assay [2] is listed as “binds”.

B1: VGLL4-BirA*-HA (full-length VGLL4 amino acid sequence fused with BirA*) (protein, UniProt Q14135 1-290)
chain: METPLDVLSRAASLVHADDEKREAALRGEPRIQTLPVASALSSHRTGPPPISPSKRKFSMEPGDEDLDCDNDHVSKMSRIFNPHLNKTANGDCRRDPRERSRSPIERAVAPTMSLHGSHLYTSLPSLGLEQPLALTKNSLDASRPAGLSPTLTPGERQQNRPSVITCASAGARNCNLSHCPIAHSGCAAPGPASYRRPPSAATTCDPVVEEHFRRSLGKNYKEPEPAPNSVSITGSVDDHFAKALGDTWLQIKAAKDGASSSPESASRRGQPASPSAHMVSHSHSPSVVS
In the case of B1, in assay [3], the binding result is reported as “binds”.

B2: VGLL4 (endogenous, MDA-MB-231 cells) (protein, UniProt Q14135 1-290)
chain: METPLDVLSRAASLVHADDEKREAALRGEPRIQTLPVASALSSHRTGPPPISPSKRKFSMEPGDEDLDCDNDHVSKMSRIFNPHLNKTANGDCRRDPRERSRSPIERAVAPTMSLHGSHLYTSLPSLGLEQPLALTKNSLDASRPAGLSPTLTPGERQQNRPSVITCASAGARNCNLSHCPIAHSGCAAPGPASYRRPPSAATTCDPVVEEHFRRSLGKNYKEPEPAPNSVSITGSVDDHFAKALGDTWLQIKAAKDGASSSPESASRRGQPASPSAHMVSHSHSPSVVS
Regarding B2, the binding result in assay [4] is listed as “binds”.

B3: VGLL4-Flag (protein, UniProt Q14135 1-290)
chain: METPLDVLSRAASLVHADDEKREAALRGEPRIQTLPVASALSSHRTGPPPISPSKRKFSMEPGDEDLDCDNDHVSKMSRIFNPHLNKTANGDCRRDPRERSRSPIERAVAPTMSLHGSHLYTSLPSLGLEQPLALTKNSLDASRPAGLSPTLTPGERQQNRPSVITCASAGARNCNLSHCPIAHSGCAAPGPASYRRPPSAATTCDPVVEEHFRRSLGKNYKEPEPAPNSVSITGSVDDHFAKALGDTWLQIKAAKDGASSSPESASRRGQPASPSAHMVSHSHSPSVVS
With B3, the binding result in assay [5] is “binds”.
